# From PubChem BioAssay AID2685 (National Center for Advancing Translational Sciences (NCATS), 2010)
# This is one part of the list. The main result of the screen is listed elsewhere. These columns were measured beside it and carry no call. Compounds called inactive in the main read-out are mostly missing here. The note in brackets gives the kind of curve behind each potency; many fits are weak.
# Assay: qHTS Assay for Lipid Storage Modulators in Drosophila S3 Cells;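 as to cell number change: cells counted by Cell Tracker Red CMTPX staining in the red channel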
# Details: BODIPY lipid droplet fluorescence, 18-24 h; for cell number change: measured here: cell count max response, cells fed with added oleic acid
# In short: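 Drosophila S3 cells got compounds at several concentrations plus oleic acid (400 uM solution). Laser-scanning cytometry with 488 nm excitation read lipid droplets at 500-530 nm and cells at 575-640 nm. Percent activity was relative to 20 uM Triacsin C.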
# [1] = measured here: lipid fluorescence (Fed channel) AC50, cells fed with added oleic acid
# [2] = measured here: cell number channel AC50, cells fed with added oleic acid
Compound,cell number change [%],AC50 [1],AC50 [2]
COc1ccc(Cc2nn[nH]n2)cc1,9.19,"0.517 µM [falling, single point]",
CSc1ccccc1OCc1cc(C(=O)N(C)Cc2ccc3nsnc3c2)no1,-12.7,"1.16 µM [rising, full curve, poor fit]","5.17 µM [rising, partial curve]"
CCOC(=O)c1ccc(NC(=O)Nc2c(C)n(C)n(-c3ccccc3)c2=O)cc1,8.67,"29.1 µM [rising, partial curve, poor fit]",
Clc1ccc2c(c1)C=Nc1c(NCc3ccccc3)ncnc1O2,-20.5,"6.51 µM [rising, partial curve]",
CC1(C)N=C(SCC(=O)Nc2ccc(Cl)cc2)C(c2ccc(Cl)cc2)=N1,-51.8,"1.03 µM [rising, full curve]","29.1 µM [falling, single point]"
O=C(Nc1ccc(C(=O)N2CCN(c3ccccc3F)CC2)cc1)C1=CSCCO1,,"6.51 µM [rising, single point]",
Cc1sc2ncn(CC(=O)N3CCCC(C)C3)c(=O)c2c1S(=O)(=O)N1CCCCC1 (stereo not drawn),10.8,,
CCc1nnc(NC(=O)c2cccs2)s1,-30.2,"9.2 µM [falling, partial curve]","0.731 µM [falling, full curve]"
O=[N+]([O-])c1ccc(N2CCCCC2)cc1SCCO,,,"0.146 µM [falling, full curve, poor fit]"
CC(=O)Nc1c(S(=O)(=O)c2ccccc2)c2nc3ccccc3nc2n1Cc1ccccc1,,"8.2 µM [falling, partial curve, poor fit]",
CCOC(=O)c1cc(C)nc(S(C)(=O)=O)c1C#N,-68.6,,"18.4 µM [falling, single point]"
CC(=O)CCS(=O)(=O)c1ccc(C)c(C)c1,5.24,"20.6 µM [falling, single point]",
Cn1cc(CN(Cc2ccccn2)C[C@@H]2CCC(=O)N2)c(-c2ccccc2F)n1,-17.2,"0.82 µM [falling, full curve, poor fit]","0.00461 µM [falling, full curve, poor fit]"
COc1ccc(OCCN2C(=O)c3ccccc3C2=O)c([N+](=O)[O-])c1,-24.6,,
COc1ccc(C(=O)NCC(=O)OCc2ccccc2F)cc1,52,"0.13 µM [falling, full curve, poor fit]",
COc1ccccc1CCC(=O)Nc1cccc(S(=O)(=O)N2CCCCCC2)c1,33,"2.31 µM [rising, partial curve]","2.31 µM [rising, full curve]"
CCOc1ccccc1NC(=S)N1CCC(NC(=O)c2ccco2)CC1,-34.1,"29.1 µM [falling, single point]","13 µM [falling, single point]"
COC(=O)CSC1=C(C#N)C(c2ccc3c(c2)OCO3)C2=C(CCCC2=O)N1 (stereo not drawn),,,"0.731 µM [rising, single point]"
COc1cc(OC)cc(C(=O)Nn2cc(C(=O)Nc3ccc(F)cc3F)c3ccccc3c2=O)c1,9.68,"18.4 µM [rising, single point]",

# Four consecutive records from above, for reference:
Compound,cell number change [%],AC50 [1],AC50 [2]
Cn1cc(CN(Cc2ccccn2)C[C@@H]2CCC(=O)N2)c(-c2ccccc2F)n1,-17.2,"0.82 µM [falling, full curve, poor fit]","0.00461 µM [falling, full curve, poor fit]"
COc1ccc(OCCN2C(=O)c3ccccc3C2=O)c([N+](=O)[O-])c1,-24.6,,
COc1ccc(C(=O)NCC(=O)OCc2ccccc2F)cc1,52,"0.13 µM [falling, full curve, poor fit]",
COc1ccccc1CCC(=O)Nc1cccc(S(=O)(=O)N2CCCCCC2)c1,33,"2.31 µM [rising, partial curve]","2.31 µM [rising, full curve]"

# (cont.)

Compound,cell number change [%],AC50 [1],AC50 [2]
O=C(NNC1=NCCC1)c1cccc(S(=O)(=O)N2CCCC2)c1,4.7,"6.51 µM [rising, single point]",
CNC(=S)N(CCc1c(C)[nH]c2ccc(F)cc12)Cc1ccco1,1.53,"6.51 µM [rising, single point]",
COc1ccc(C2CC(c3ccccc3OC(C)=O)=NN2C(=O)/C=C/c2ccccc2)cc1 (stereo not drawn),-40.4,"29.1 µM [falling, single point]","32.6 µM [falling, single point]"
CN(c1nc(-c2ccccc2)cs1)C1CCS(=O)(=O)C1 (stereo not drawn),7.8,"11.6 µM [rising, partial curve]",
Cc1cc(C(=O)CSc2nnc(-c3cccnc3)n2-c2ccccc2)c(C)n1CC1CCCO1 (stereo not drawn),,"5.8 µM [rising, partial curve]",
O=C(C1CCN(S(=O)(=O)c2cccs2)CC1)N1CCCCCC1,7.47,"0.366 µM [rising, full curve, poor fit]","0.0058 µM [rising, full curve, poor fit]"
CCN(C(=O)c1cc2c(=O)n3cccc(C)c3nc2s1)C1CCCCC1,17.6,,
Nc1nonc1C(=O)NCCN=Cc1cc(Cc2ccccc2)cc(Br)c1O,-53.7,"29.1 µM [falling, single point]","18.4 µM [falling, single point]"
COc1ccc(NC(=O)c2ccccc2Oc2ccccc2)cc1,39.8,"29.1 µM [rising, partial curve, poor fit]",
O=C1C2=C(C(c3ccccc3)=NCCN2)C(c2cccc([N+](=O)[O-])c2)N1c1ccccc1 (stereo not drawn),-14.9,"0.82 µM [falling, full curve, poor fit]",
Cc1ccc(C)c(NC(=O)CNS(=O)(=O)c2ccccc2)c1,,"0.291 µM [rising, partial curve, poor fit]","1.16 µM [rising, partial curve]"
CCc1ccc2[nH]c(=O)c(CN(CCCN3CCOCC3)C(=O)Nc3ccccc3)cc2c1,26.5,"9.2 µM [rising, partial curve]",
COc1ccc(N(CCC#N)C(=O)/C(C#N)=C\c2cccs2)cc1,15,,
COc1ccc(Cl)cc1NC(=O)CN(C)C(=O)c1cn2ccccc2n1,-8.65,"0.411 µM [falling, full curve, poor fit]",
COc1cc2c(cc1OC)CN(C(=O)c1ccc(N3CCCC3)c([N+](=O)[O-])c1)CC2,17,"3.66 µM [rising, single point]",
CS(=O)(=O)N(CC(=O)N1CCc2ccccc2C1)Cc1ccc(Cl)cc1,43,,"16.4 µM [rising, partial curve, poor fit]"
CCOC(=O)C1CCCN(S(=O)(=O)c2cc(Br)cc3c2N(C(C)=O)CC3)C1 (stereo not drawn),-21,"29.1 µM [falling, single point]",
CCOc1ccc(NC(=O)CCN2CCN(c3ccccc3F)CC2)cc1,108,"2.31 µM [rising, partial curve]","10.3 µM [rising, partial curve]"
CCOC(=O)C1CCCN(CCC(=O)Nc2c(C(=O)OC)[nH]c3cc(OC)ccc23)C1 (stereo not drawn),0.476,,

Compound,cell number change [%],AC50 [1],AC50 [2]
COc1cc(NC(=O)CN2C(=O)C(=O)N(CC(C)C)C2=O)cc(OC)c1,17.7,,
CC1CCN(C(=O)CN2C(=O)COc3ccc(Cl)cc32)CC1,6.41,,
CC1CN(CCCCN2C(=O)c3ccccc3C2=O)CC(C)O1 (stereo not drawn),22,,
O=c1cc(-c2c(O)c3ccccc3n(Cc3ccccc3)c2=O)[nH][nH]1,17,,"0.651 µM [falling, full curve, poor fit]"
O=C1C2C3C=CC(C3)C2C(=O)N1Cc1ccccc1 (stereo not drawn),19.5,"0.00461 µM [falling, full curve, poor fit]",
NC(=O)CC(NC(=O)c1cccc(Br)c1)c1ccc(NC2CCC2)c([N+](=O)[O-])c1 (stereo not drawn),17.8,,"0.731 µM [rising, full curve, poor fit]"
O=S(=O)(c1ccc(NC(=S)NCCC(c2ccccc2)c2ccccc2)cc1)N1CCOCC1,83.3,"29.1 µM [falling, single point]","9.2 µM [rising, partial curve]"
CCCCn1c(N)c(-c2nc3ccccc3s2)c2c([N+](=O)[O-])nn(C)c(=O)c21,,"0.411 µM [rising, partial curve, poor fit]",
Cc1ccc(-c2nnn3c2nc(NCCc2ccc(S(N)(=O)=O)cc2)c2ccccc23)cc1,-2.51,,
Cc1noc(/C=C/c2ccco2)c1S(=O)(=O)N1CCC(C(=O)Nc2ccc(Cl)cn2)CC1,-12.1,"6.51 µM [rising, single point]","1.84 µM [falling, partial curve, poor fit]"
COc1cccc(-n2nnnc2S(C)(=O)=O)c1,-74.1,"16.4 µM [falling, partial curve]","29.1 µM [falling, single point]"
O=C(Cc1ccccc1)Nc1ccc(NC(=S)NC(=O)c2ccccc2)cc1,5.68,"0.259 µM [rising, partial curve, poor fit]",
Cc1cc2nc3n(c2cc1C)CC1CC(C(=O)NCCC(C)C)N(C)C31 (stereo not drawn),26.2,"29.1 µM [rising, single point]",
CCc1ccc2c(COC(=O)C3CC(=O)N(CCc4ccccc4)C3)cc(=O)oc2c1 (stereo not drawn),15.7,,
O=C(O)CCCCCCCCCCCNC(=O)NC12CC3CC(CC(C3)C1)C2,-30.4,"14.6 µM [falling, single point]","32.6 µM [falling, single point]"
CCOC(=O)c1ccc(CSC(=N)N)o1,3.39,,
COc1ccccc1-c1nnc(SC(C)C(=O)N2CCOCC2)o1 (stereo not drawn),37.3,,"8.2 µM [rising, partial curve]"
CC(=O)c1ccc(NC(=O)COC(=O)c2c3c(nc4ccccc24)/C(=C\c2cccs2)CCC3)cc1,-67.7,"4.11 µM [falling, full curve, poor fit]","6.51 µM [falling, partial curve]"
CC1CCC2C(=O)N(c3ccc(C(=O)NCc4ccccc4)cc3)C(=O)C2C1 (stereo not drawn),-30.3,"29.1 µM [falling, single point]","29.1 µM [falling, single point]"
